Assay results as given in PubChem BioAssay AID590 (National Center for Advancing Translational Sciences (NCATS), 2007).
Several values for one entry are separate records, joined by “and”; a condition that tells them apart may be missing. Identical values can stand only once. Out of some 59,000 compounds screened, about 6,500 (11%) were called active. This list was built around the results that the source calls inconclusive (neither active nor inactive); the mix of calls is not that of the screen. Rule as the data show it: active = max dye-equivalent concentration above about 10 nM; inconclusive = mostly about 1.1 nM to 9.6 nM; inactive = weaker than that.

Test: qHTS Assay for Spectroscopic Profiling in A350 Spectral Region
Conditions: Compound autofluorescence, 340/450 nm, Alexa 350 dye-equivalents; active compounds read high

| Compound | max dye-equivalent concentration |
| --- | --- |
| COC(=O)c1cc2c(cn1)[nH]c1ccccc12 | inconclusive: 8.7e-09 M |
| CCCCn1c(O)c(C=Nc2c(C)n(C)n(-c3ccccc3)c2=O)c(=O)[nH]c1=O | active: 2.9e-07 M |
| CN1C(=O)N(C)C(=O)C2(Cc3c(nc4ccccn4c3=O)N3CCC(Cc4ccccc4)CC32)C1=O (stereo not given) | active: 1.5e-07 M |
| CN(C)[C@@H]1C(=O)C(C(N)=O)=C(O)[C@]2(O)C(=O)C3=C(O)c4c(O)cccc4[C@@](C)(O)[C@H]3[C@H](O)[C@@H]12 | active: 2.9e-08 M |
| c1ccc2c3c([nH]c2c1)CNCC3 | inconclusive: 5.7e-09 M |
| O=C(CCCn1c(=O)[nH]c2cc(Cl)ccc2c1=O)N1CCC2(CC1)OCCO2 | inconclusive: 2.4e-09 M |
| NC(N)=NCCN=C(N)N | inactive |
| C=CCN1CC[C@@]23CCCC[C@@H]2[C@@H]1Cc1ccc(O)cc13 | inactive |
| C[C@H]1CC[C@@]2(NC1)O[C@@H]1C[C@H]3[C@@H]4CC[C@@H]5C[C@@H](O)CC[C@@]5(C)[C@@H]4CC[C@]3(C)[C@@H]1[C@@H]2C | inactive |
| OC1(CN2CCOCC2)C2CC3CC(C2)CC1C3 (stereo not given) | inconclusive: 1.4e-09 M |
| CCCCCC[C@H]1C(=O)O[C@H](C)[C@H](NC(=O)c2cccc(NC=O)c2O)C(=O)O[C@@H](C)[C@H]1OC(=O)CC(C)C | active: 3.4e-08 M |
| CC(=O)Nc1ccc2c(c1)CC1(C(=O)N(C)C(=O)N(C)C1=O)C1CCCN21 (stereo not given) | inconclusive: 5.1e-09 M |
| Cc1ccc(Cn2nnnc2CN2CCC(n3nnc4ccccc43)CC2)cc1 | inactive |
| CCOc1cc(-c2nc3c(C)cccn3c2NCC2CCCO2)ccc1O (stereo not given) | active: 8.8e-07 M |
| O[C@H]1C2CCC1C(N1CCCCC1)CC2 (stereo not given in full) | inconclusive: 6.8e-09 M |
| C=CCn1c(O)c(C(CC)=NCCCO)c(=O)[nH]c1=O | inconclusive: 3.4e-09 M |
| c1cc(CN2CCC3(CCNCC3)CC2)ccn1 | inactive |
| COc1ccc(NC(=O)N2CC3(CCN(C(=O)Oc4ccccc4)CC3)C2)cc1 | inactive |
| N#C/C(=C\c1ccc(O)c(O)c1)C(N)=S | inconclusive: 2.3e-09 M |
| C[C@]12Cc3cn4c(nc3C=C1CC[C@H]1[C@@H]2CC[C@@]2(C)[C@H]1CC[C@@]2(O)C#N)nc1ccccc14 | inconclusive: 2.5e-09 M |
| O=C(CCCN1CCC(n2c(=O)[nH]c3ccccc32)CC1)c1ccc(F)cc1 | inconclusive: 1.3e-09 M |
| CCCCn1c(O)c(C(C)=Nc2ccc(OCC)cc2)c(=O)[nH]c1=O | inconclusive: 2.2e-09 M |
| COc1ccc(C(=O)OC2C[C@H]3CC[C@@H](C2)N3C)cc1OC (stereo not given in full) | inactive |
| C[C@H]1OC[C@@H](C[N+](C)(C)C)O1 | inconclusive: 3.2e-09 M |
| CCCCn1c(O)c(C(C)=Nc2ccc(C(=O)O)cc2)c(=O)[nH]c1=O | inconclusive: 1.5e-09 M |
| COc1cc2c(cc1O)C[C@H]1c3c(cc(O)c(OC)c3-2)CCN1C | inconclusive: 9.7e-09 M and inconclusive: 4e-09 M |
| CC#CP(=O)(OCC)C(O)(c1ccccc1)C(F)(F)F (stereo not given) | inconclusive: 1.8e-09 M |
| O=C(O)CN1C(=O)CN=C(c2ccccn2)c2cc(Cl)ccc21 | inconclusive: 1.3e-09 M |

| Compound | max dye-equivalent concentration |
| --- | --- |
| CC1=CC(=O)C2=C(C)C[C@@H](O)[C@@H]3[C@@H](OC(=O)[C@H]3C)[C@H]12 | inconclusive: 2e-09 M |
| CC1=NOC2(C)Nc3ncnn3C(c3ccccc3)C12 (stereo not given) | inconclusive: 2.4e-09 M |
| OC(c1ccccc1)(c1ccccc1)C1CCNCC1 | inconclusive: 2.3e-09 M |
| COc1cc2c(cc1O)CCN[C@H]2C | active: 1e-07 M |
| COC(=O)C1C2c3ccccc3OC1(C)N=c1s/c(=C/c3cn(C)nc3C)c(=O)n12 (stereo not given) | inconclusive: 2.7e-09 M |
| O=C(c1cc2ccccc2oc1=O)N1CCC2(CC1)OCCO2 | inconclusive: 1.9e-09 M |
| COC(=O)C(C)Oc1cc(C)cc2oc(=O)c3c(c12)CCCC3 (stereo not given) | inactive |
| CCC(C)NC(=O)c1c(N)n(CC2CCCO2)c2nc3ccccc3nc12 (stereo not given) | active: 1.7e-06 M |
| Cc1nc2ncnn2c(C)c1CCC(=O)N1CCC2(CC1)OCCO2 | inconclusive: 1.3e-09 M |
| COc1ccc(-n2c(=O)[nH]c3ccccc3c2=O)c(OC)c1 | inconclusive: 3.8e-09 M |
| CC(=NCC1CCCO1)c1c(O)n(C)c(=O)n(C)c1=O (stereo not given) | inconclusive: 4.5e-09 M |
| CCCC(C)(COC(N)=O)COC(=O)NC(C)C (stereo not given) | inconclusive: 2.7e-09 M |
| CN1[C@@H]2CC[C@H]1CC(OC(=O)C1C=Nc3ccccc31)C2 (stereo not given in full) | inactive |
| COc1ccc(-c2nc(CSCC(=O)N3CCC4(CC3)OCCO4)c(C)o2)cc1OC | inactive |
| C=CCN1CCc2cccc3c2[C@@H]1Cc1ccc(O)c(O)c1-3 | inconclusive: 7.2e-09 M |
| C[C@@H]1[C@H]2C=C[C@@H]1[C@@H](c1c3ccc(=O)c(O)c-3oc3c(O)c(O)ccc13)[C@@H]2C(=O)O | inactive |
| CC(C)=CCSc1nnc([C@@H](N)Cc2c[nH]c3ccccc23)o1 | inactive |
| O=C1NC(=O)C2(Cc3ccccc3N3CCCC32)C(=O)N1c1ccccc1 (stereo not given) | active: 2.1e-08 M |
| O=C1CC(=O)N(c2cccc(Cl)c2)C(=O)N1 | inconclusive: 1.3e-09 M |
| CCCCC/C=C\C/C=C\C/C=C\C/C=C\CCCC(=O)NCC(=O)O | inconclusive: 3.2e-09 M |
| CC(=O)c1cccc(OCC(O)CN2CC=C(c3ccccc3)CC2)c1 (stereo not given) | inconclusive: 1.8e-09 M |
| CN1CCc2cc3c(cc2[C@@H]1O)OCO3 | active: 4.3e-06 M |
| CCCCn1c(O)c(C(C)=Nc2cccc(C(=O)O)c2)c(=O)[nH]c1=O | inconclusive: 4.5e-09 M |
| CCOC(=O)c1cncn1C(C)c1ccccc1 (stereo not given) | inconclusive: 3.1e-09 M |
| COC(=O)C(C)Oc1cc(C)cc2oc(=O)c3c(c12)CCC3 (stereo not given) | active: 1.8e-08 M |
| O=c1cccc2n1C[C@@H]1C[C@H]2CN2CCCC[C@H]12 | active: 5.5e-08 M |
| Cc1ccccc1-c1cncnc1NCCc1cnc[nH]1 | inconclusive: 1.2e-09 M |
